Values quoted from earlier work in PMC9212491 (Antiviral Research, 2022).

Test system: AP2M1 phosphorylation
Settings: only at a high concentration; ref Wang et al., 2020; cited from earlier work

CCS(=O)(=O)N1CC(CC#N)(n2cc(-c3ncnc4[nH]ccc34)cn2)C1 [Baricitinib, baricitinib]
concentration at which AP2M1 phosphorylation was inhibited: 10 µM
